Data taken from article PMC11830799.
No constants are given. Whether binding was seen depends on the method and setting. In cells and extracts the contact can be indirect. Some binding calls cover weakened binding; strength is not graded here. For some assays here: Sequences can lack the tags named with a protein. Values belong to the binder of their own block, whether it stands above or below them.

Legend:
[1] = target: T1, endogenous MAS receptor of mouse kidney (mouse (endogenous in kidney tissue)) (UniProt P30554); assay: co-IP; endogenous proteins in mouse kidney tissue
T1 sequence: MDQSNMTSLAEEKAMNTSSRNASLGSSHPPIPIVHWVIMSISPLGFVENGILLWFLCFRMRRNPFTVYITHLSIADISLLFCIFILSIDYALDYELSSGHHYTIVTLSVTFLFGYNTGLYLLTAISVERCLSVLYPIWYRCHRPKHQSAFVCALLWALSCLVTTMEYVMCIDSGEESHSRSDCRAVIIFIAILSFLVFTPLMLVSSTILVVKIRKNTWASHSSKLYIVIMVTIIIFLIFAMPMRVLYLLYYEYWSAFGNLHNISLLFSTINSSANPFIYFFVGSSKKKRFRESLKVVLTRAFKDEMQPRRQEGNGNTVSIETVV

[2] = target: T2, GFP-tagged full-length wild-type MAS receptor (UniProt P04201); assay: co-IP; COS-7 cells transfected with GFP-MAS WT or GFP-MAS V325A with or without Flag-MAGI3, Western blot
T2 sequence: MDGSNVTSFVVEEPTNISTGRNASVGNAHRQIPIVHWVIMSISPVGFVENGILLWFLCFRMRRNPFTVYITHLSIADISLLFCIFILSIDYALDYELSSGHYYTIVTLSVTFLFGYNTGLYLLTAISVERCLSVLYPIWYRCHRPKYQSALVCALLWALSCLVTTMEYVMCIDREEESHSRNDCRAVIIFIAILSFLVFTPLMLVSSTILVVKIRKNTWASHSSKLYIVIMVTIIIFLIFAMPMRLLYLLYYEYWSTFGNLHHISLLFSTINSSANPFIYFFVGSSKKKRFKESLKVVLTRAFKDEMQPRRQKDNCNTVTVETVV

binding [1]: binds
B1: endogenous MAGI3 of mouse kidney (protein, UniProt Q9EQJ9 1-1476)
chain: MSKTLKKKKHWLSKVQECAVSWAGPPGDLGAEIRGGAERGEFPYLGRLRDEAGGGGGTCCVVSGKAPSPGDVLLEVNGTPVSGLTNRDTLAVIRHFREPIRLKTVKPGKVINKDLRHYLSLQFQKGSIDHKLQQVIRDNLYLRTIPCTTRAPRDGEVPGVDYNFISVEQFKALEESGALLESGTYDGNFYGTPKPPAEPSPFQPDPVDQVLFDNEFDTESQRKRTTSVSKMERMDSSLPEEEEDEDKEAVNGSGSMETREMHSETSDCWMKTVPSYNQTNSSMDFRNYMMRDENLEPLPKNWEMAYTDTGMIYFIDHNTKTTTWLDPRLCKKAKAPEDCEDGELPYGWEKIEDPQYGTYYVDHLNQKTQFENPVEEAKRKKQLGQAEIHSAKTDVERAHFTRDPSQLKGVLVRASLKKSTMGFGFTIIGGDRPDEFLQVKNVLKDGPAAQDGKIAPGDVIVDINGNCVLGHTHADVVQMFQLVPVNQYVNLTLCRGYPLPDDSEDPVVDIVAATPVINGQSLTKGETCMNTQDFKLGAMVLDQNGKSGQILASDRLNGPSESSEQRASLASSGSSQPELVTIPLIKGPKGFGFAIADSPTGQKVKMILDSQWCQGLQKGDIIKEIYHQNVQNLTHLQVVEVLKQFPVGADVPLLILRGGPCSPTKTAKTKTDTKENSGSLETINEPIPQPMPFPPSIIRSGSPKLDPSEVYLKSKTLYEDKPPNTKDLDVFLRKQESGFGFRVLGGDGPDQSIYIGAIIPLGAAEKDGRLRAADELMCIDGIPVKGKSHKQVLDLMTTAARNGHVLLTVRRKIFYGEKQPEDESHQAFSQNGSPRLNRAELPTRSAPQEAYDVTLQRKENEGFGFVILTSKSKPPPGVIPHKIGRVIDGSPADRCGGLKVGDHISAVNGQSIVDLSHDNIVQLIKDAGVTVTLTVVAEEEHHGPPSGTNSARQSPALQHRPMGQAQANHIPGDRIALEGEIGRDVCSSYRHSWSDHKHLAQPDTAVISVVGSRHNQSLGCYPVELERGPRGFGFSLRGGKEYNMGLFILRLAEDGPAIKDGRIHVGDQIVEINGEPTQGITHTRAIELIQAGGNKVLLLLRPGTGLIPDHGDWDTNSPSSSNVIYDEQPPPLPSSHSASTFEESHVPATEDSLTRVQICEKAEELKDTVQEKKSTLNGSQPEMKYQSVHKTMSKKDPPRGSGHGEKSRLKGENGVTRRGRSASPKKSVNRHSEEHLEKIPRPLKSDPKEKSRDRSLSPRKGESKGRLTIKAGSGQDPYRKDRGRSSSPKKQQKIGGNSLSNTEGKLSEAGSRRAAGHPRDSTEQLPDGREKSGVSRKDLKQSQPGKTRTKSPEKKSSKVDETSLPSKKTSSTAGRVVSEKEKGKKPTAGETSRETVEHTQISAKQLKQEAQEKTALGNADDHKGRESEVTDRCRERAGCTPQSSSLVKKAPITPGPWRVPRANKVTGTTGMADKQL

binding [2]: binds
B2: Flag-tagged full-length MAGI3 (protein, UniProt Q5TCQ9 1-1481)
chain: MSKTLKKKKHWLSKVQECAVSWAGPPGDFGAEIRGGAERGEFPYLGRLREEPGGGTCCVVSGKAPSPGDVLLEVNGTPVSGLTNRDTLAVIRHFREPIRLKTVKPGKVINKDLRHYLSLQFQKGSIDHKLQQVIRDNLYLRTIPCTTRAPRDGEVPGVDYNFISVEQFKALEESGALLESGTYDGNFYGTPKPPAEPSPFQPDPVDQVLFDNEFDAESQRKRTTSVSKMERMDSSLPEEEEDEDKEAINGSGNAENRERHSESSDWMKTVPSYNQTNSSMDFRNYMMRDETLEPLPKNWEMAYTDTGMIYFIDHNTKTTTWLDPRLCKKAKAPEDCEDGELPYGWEKIEDPQYGTYYVDHLNQKTQFENPVEEAKRKKQLGQVEIGSSKPDMEKSHFTRDPSQLKGVLVRASLKKSTMGFGFTIIGGDRPDEFLQVKNVLKDGPAAQDGKIAPGDVIVDINGNCVLGHTHADVVQMFQLVPVNQYVNLTLCRGYPLPDDSEDPVVDIVAATPVINGQSLTKGETCMNPQDFKPGAMVLEQNGKSGHTLTGDGLNGPSDASEQRVSMASSGSSQPELVTIPLIKGPKGFGFAIADSPTGQKVKMILDSQWCQGLQKGDIIKEIYHQNVQNLTHLQVVEVLKQFPVGADVPLLILRGGPPSPTKTAKMKTDKKENAGSLEAINEPIPQPMPFPPSIIRSGSPKLDPSEVYLKSKTLYEDKPPNTKDLDVFLRKQESGFGFRVLGGDGPDQSIYIGAIIPLGAAEKDGRLRAADELMCIDGIPVKGKSHKQVLDLMTTAARNGHVLLTVRRKIFYGEKQPEDDSSQAFISTQNGSPRLNRAEVPARPAPQEPYDVVLQRKENEGFGFVILTSKNKPPPGVIPHKIGRVIEGSPADRCGKLKVGDHISAVNGQSIVELSHDNIVQLIKDAGVTVTLTVIAEEEHHGPPSGTNSARQSPALQHRPMGQSQANHIPGDRSALEGEIGKDVSTSYRHSWSDHKHLAQPDTAVISVVGSRHNQNLGCYPVELERGPRGFGFSLRGGKEYNMGLFILRLAEDGPAIKDGRIHVGDQIVEINGEPTQGITHTRAIELIQAGGNKVLLLLRPGTGLIPDHGDWDINNPSSSNVIYDEQSPLPPSSHFASIFEESHVPVIEESLRVQICEKAEELKDIVPEKKSTLNENQPEIKHQSLLQKNVSKRDPPSSHGHSNKKNLLKVENGVTRRGRSVSPKKPASQHSEEHLDKIPSPLKNNPKRRPRDQSLSPSKGENKSCQVSTRAGSGQDQCRKSRGRSASPKKQQKIEGSKAPSNAEAKLLEGKSRRIAGYTGSNAEQIPDGKEKSDVIRKDAKQNQLEKSRTRSPEKKIKRMVEKSLPSKMTNKTTSKEVSENEKGKKVTTGETSSSNDKIGENVQLSEKRLKQEPEEKVVSNKTEDHKGKELEAADKNKETGRFKPESSSPVKKTLITPGPWKVPSGNKVTGTIGMAEKRQ
